From US20100092974A1, “METHODS FOR SCREENING FOR MODULATORS OF CCRL2” (The Board of Trustees of the Leland Stanford Junior …, priority 2008, published 2010)
These are yes or no findings as the source states them, for the method shown. Some binding calls cover weakened binding; strength is not graded here. Tags and fused reporters may be left off the sequences shown.

Target: T1, mouse CCRL2 (chemokine (CC motif) receptor-like 2), untagged (mouse) (UniProt O35457)
T1 sequence (looked up): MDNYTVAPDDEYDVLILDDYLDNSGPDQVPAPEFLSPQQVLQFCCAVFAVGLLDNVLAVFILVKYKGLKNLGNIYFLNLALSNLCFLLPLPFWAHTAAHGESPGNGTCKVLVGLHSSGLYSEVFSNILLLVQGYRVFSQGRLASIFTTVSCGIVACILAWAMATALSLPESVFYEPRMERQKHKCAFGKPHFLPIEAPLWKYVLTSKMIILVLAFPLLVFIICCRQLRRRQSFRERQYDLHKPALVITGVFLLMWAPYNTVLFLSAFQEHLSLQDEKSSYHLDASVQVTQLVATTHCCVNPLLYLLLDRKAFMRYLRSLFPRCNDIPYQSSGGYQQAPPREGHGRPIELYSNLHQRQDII
Test: flow cytometry on peritoneal mast cells; chemerin blocks the staining by the anti-mCCRL2 mAb (legend: BZ2E3; paragraph 140: BZ5B8) [panel A]

B1: human chemerin (as used to block anti-mCCRL2 staining, FIG. 6 Panel A) (ligand, UniProt Q99969 21-157, looked up)
chain: ELTEAQRRGLQVALEEFHKHPPVQWAFQETSVESAVDTPFPAGIFVRLEFKLQQTSCRKRDWKKPECKVRPNGRKRKCLACIKLGSEDKVLGRLVHCPIETQVLREAEEHQETQCLRVQRAGEDPHSFYFPGQFAFS
binding: binds
